No constants are given. Whether binding was seen depends on the method and setting. In cells and extracts the contact can be indirect. Some results given as binding are weak or reduced against the parent protein; the word gives no strength.
Target: GST-C-terminal WRN fragment (amino acids 910 to 1250) (human) (UniProt Q14191)
Assay: pull-down; GST or GST-C-terminal WRN fragment on beads incubated 16 hours with 300 ng of HEK293T (nuclear) extracts, cells treated or not with 2 mM HU for 4 hours; Western blot with anti-GST and anti-SAMHD1; only the target purified

Amino acid sequences for entries named in this document (tags omitted). Residues count along the entry.
UniProt Q14191, residues 910-1250: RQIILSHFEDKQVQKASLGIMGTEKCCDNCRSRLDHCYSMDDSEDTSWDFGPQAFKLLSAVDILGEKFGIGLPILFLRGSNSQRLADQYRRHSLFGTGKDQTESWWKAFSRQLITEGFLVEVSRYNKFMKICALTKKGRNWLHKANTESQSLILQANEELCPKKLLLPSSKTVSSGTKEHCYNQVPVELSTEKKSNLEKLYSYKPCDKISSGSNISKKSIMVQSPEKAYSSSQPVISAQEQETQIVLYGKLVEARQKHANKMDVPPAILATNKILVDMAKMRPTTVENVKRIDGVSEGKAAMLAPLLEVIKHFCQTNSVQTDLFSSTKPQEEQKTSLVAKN
UniProt Q9Y3Z3: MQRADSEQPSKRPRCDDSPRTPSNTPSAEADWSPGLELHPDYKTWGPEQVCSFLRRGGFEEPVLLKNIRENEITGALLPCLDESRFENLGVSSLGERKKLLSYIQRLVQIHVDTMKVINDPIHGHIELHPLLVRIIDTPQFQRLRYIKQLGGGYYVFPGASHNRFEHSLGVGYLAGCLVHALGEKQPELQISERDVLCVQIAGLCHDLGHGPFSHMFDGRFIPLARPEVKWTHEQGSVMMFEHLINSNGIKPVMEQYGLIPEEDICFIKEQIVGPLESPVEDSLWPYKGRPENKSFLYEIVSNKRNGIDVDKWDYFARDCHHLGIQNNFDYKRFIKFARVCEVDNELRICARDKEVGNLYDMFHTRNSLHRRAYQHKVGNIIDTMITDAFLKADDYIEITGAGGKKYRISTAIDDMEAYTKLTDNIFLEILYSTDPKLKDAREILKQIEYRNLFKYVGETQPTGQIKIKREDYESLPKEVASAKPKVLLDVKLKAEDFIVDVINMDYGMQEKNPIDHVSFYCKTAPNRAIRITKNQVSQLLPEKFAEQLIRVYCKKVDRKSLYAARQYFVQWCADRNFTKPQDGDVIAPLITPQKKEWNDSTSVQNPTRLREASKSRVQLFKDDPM

- binding: binds
Substance: SAMHD1 (endogenous in HEK293T cells) (from UniProt Q9Y3Z3 1-626)
